Our source for the binding values is paper PMC8693860.

Chains of the proteins cited; added tags and fusions are not shown.
UniProt P53855: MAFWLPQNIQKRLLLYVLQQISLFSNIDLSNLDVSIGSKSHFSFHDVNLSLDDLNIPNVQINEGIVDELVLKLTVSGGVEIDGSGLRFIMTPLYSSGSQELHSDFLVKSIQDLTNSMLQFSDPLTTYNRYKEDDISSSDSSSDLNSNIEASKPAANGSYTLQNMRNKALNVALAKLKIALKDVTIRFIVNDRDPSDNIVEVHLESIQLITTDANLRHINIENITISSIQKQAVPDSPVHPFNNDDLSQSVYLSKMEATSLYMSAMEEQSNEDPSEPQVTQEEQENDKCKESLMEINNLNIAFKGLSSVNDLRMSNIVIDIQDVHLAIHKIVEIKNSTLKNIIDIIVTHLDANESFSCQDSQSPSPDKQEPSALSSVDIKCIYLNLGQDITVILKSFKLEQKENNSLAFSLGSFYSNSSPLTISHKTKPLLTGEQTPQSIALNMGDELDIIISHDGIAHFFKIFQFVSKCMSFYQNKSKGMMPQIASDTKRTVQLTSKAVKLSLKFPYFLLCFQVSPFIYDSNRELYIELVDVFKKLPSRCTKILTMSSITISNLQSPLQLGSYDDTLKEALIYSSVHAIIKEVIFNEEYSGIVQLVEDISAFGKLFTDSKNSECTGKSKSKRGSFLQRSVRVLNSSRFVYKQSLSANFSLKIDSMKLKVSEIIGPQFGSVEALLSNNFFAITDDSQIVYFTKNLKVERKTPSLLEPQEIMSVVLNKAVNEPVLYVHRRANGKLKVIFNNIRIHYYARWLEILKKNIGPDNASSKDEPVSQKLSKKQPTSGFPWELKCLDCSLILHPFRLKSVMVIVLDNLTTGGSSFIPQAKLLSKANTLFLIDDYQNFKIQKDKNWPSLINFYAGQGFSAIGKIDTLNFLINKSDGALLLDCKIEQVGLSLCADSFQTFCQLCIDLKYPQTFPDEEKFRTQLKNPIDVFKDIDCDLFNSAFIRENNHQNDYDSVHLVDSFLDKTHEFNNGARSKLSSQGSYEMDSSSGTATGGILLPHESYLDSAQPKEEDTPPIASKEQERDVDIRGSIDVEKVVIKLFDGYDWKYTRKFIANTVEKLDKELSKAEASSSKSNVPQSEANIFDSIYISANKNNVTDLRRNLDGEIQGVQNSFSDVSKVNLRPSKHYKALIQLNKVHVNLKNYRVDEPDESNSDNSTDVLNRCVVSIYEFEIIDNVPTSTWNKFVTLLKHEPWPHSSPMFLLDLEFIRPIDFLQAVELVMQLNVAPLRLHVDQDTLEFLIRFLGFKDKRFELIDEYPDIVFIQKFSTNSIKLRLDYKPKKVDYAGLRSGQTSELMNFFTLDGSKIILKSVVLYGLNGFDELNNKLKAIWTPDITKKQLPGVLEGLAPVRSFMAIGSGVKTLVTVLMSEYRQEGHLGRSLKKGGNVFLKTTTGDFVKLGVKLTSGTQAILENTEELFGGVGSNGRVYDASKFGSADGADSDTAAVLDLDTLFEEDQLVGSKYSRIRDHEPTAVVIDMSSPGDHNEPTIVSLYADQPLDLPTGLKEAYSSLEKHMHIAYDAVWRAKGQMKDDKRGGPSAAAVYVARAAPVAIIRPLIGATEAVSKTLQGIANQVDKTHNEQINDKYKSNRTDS

The target in one experiment is Atg2 (S. cerevisiae) (UniProt P53855). In words: co-purification; recombinant complexes expressed together and purified by affinity, anion exchange and size exclusion chromatography (180 mM NaCl for complexes); SDS-PAGE.
Experiment [1] deals with T1, Atg12–Atg5 conjugate (S. cerevisiae) (UniProt P38316+Q12380).
T1 sequence (chain, covalently conjugated to Atg5 | covalently conjugated to Atg12) 1: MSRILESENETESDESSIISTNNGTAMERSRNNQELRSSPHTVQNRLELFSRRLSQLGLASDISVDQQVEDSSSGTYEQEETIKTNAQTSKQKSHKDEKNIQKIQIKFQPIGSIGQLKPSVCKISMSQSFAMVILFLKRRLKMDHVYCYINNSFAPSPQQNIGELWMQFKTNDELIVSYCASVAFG
T1 sequence (chain, covalently conjugated to Atg5 | covalently conjugated to Atg12) 2: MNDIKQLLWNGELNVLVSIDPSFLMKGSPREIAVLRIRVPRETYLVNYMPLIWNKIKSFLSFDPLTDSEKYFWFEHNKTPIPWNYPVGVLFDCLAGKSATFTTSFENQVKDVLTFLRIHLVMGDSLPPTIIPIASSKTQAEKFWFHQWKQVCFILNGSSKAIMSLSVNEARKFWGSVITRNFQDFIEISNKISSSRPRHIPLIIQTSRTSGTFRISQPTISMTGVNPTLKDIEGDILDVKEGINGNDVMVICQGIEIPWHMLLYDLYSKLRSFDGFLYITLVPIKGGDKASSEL
In words: pull-down; Atg12–Atg5 conjugate immobilised on a StrepTactin column, sonicated bacterial lysate with Atg16 or Atg16-FLAG added, 10 CV wash (50 mM Tris-HCl pH 8.0, 200 mM NaCl), elution with desthiobiotin, then anion exchange and SEC; only the target purified.

Experiment [2] deals with T2, Atg13^TOR_S^>^A (S379, S428 and S429 to alanine), not phosphorylated (S. cerevisiae) (UniProt Q06628).
T2 sequence: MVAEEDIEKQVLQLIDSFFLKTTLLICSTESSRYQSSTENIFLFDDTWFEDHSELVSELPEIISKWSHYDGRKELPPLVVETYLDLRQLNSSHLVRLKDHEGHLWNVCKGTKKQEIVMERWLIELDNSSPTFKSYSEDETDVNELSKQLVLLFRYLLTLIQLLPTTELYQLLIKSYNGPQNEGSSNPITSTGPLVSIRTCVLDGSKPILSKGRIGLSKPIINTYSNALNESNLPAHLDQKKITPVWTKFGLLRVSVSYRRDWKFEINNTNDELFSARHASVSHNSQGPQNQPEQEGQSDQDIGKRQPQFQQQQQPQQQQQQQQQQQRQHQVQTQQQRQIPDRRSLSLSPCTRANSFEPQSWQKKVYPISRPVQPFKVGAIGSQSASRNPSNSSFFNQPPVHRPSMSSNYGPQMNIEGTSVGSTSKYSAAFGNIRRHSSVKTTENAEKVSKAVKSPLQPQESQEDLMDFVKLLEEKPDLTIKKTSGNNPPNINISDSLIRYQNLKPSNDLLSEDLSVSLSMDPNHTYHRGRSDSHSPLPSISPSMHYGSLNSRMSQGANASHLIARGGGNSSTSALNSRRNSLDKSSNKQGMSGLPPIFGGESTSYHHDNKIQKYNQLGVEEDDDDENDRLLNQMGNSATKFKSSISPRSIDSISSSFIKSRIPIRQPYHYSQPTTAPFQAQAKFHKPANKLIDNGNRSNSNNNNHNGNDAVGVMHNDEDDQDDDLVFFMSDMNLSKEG
In words: pull-down; Atg1 complexes assembled with Atg13 mutants or truncations, with or without ATP/Mg2+ (Figures S3H-S3M, not shown; bait not told); both purified.

These are yes or no findings as the source states them, for the method shown. For part of these data: In cells and extracts the contact can be indirect. Some results given as binding are weak or reduced against the parent protein; the word gives no strength. For part of these data: Sequences can lack the tags named with a protein.

B1: Atg18 (protein, UniProt P43601 1-500)
chain: MSDSSPTINFINFNQTGTCISLGTSKGFKIFNCEPFGKFYSEDSGGYAIVEMLFSTSLLALVGIGDQPALSPRRLRIINTKKHSIICEVTFPTSILSVKMNKSRLVVLLQEQIYIYDINTMRLLHTIETNPNPRGLMAMSPSVANSYLVYPSPPKVINSEIKAHATTNNITLSVGGNTETSFKRDQQDAGHSDISDLDQYSSFTKRDDADPTSSNGGNSSIIKNGDVIVFNLETLQPTMVIEAHKGEIAAMAISFDGTLMATASDKGTIIRVFDIETGDKIYQFRRGTYATRIYSISFSEDSQYLAVTGSSKTVHIFKLGHSMSNNKLDSDDSNMEEAAADDSSLDTTSIDALSDEENPTRLAREPYVDASRKTMGRMIRYSSQKLSRRAARTLGQIFPIKVTSLLESSRHFASLKLPVETNSHVMTISSIGSPIDIDTSEYPELFETGNSASTESYHEPVMKMVPIRVVSSDGYLYNFVMDPERGGDCLILSQYSILMD
In the case of B1, the binding entry with Atg2 (S. cerevisiae) was “binds”.

B2: Atg16 (untagged or C-terminally FLAG-tagged) (protein, UniProt Q03818 1-150)
chain: MGNFIITERKKAKEERSNPQTDSMDDLLIRRLTDRNDKEAHLNELFQDNSGAIGGNIVSHDDALLNTLAILQKELKSKEQEIRRLKEVIALKNKNTERLNDELISGTIENNVLQQKLSDLKKEHSQLVARWLKKTEKETEAMNSEIDGTK
Take B2: the binding entry in experiment [1] is “binds”.

B3: Atg17-Atg29-Atg31 complex, non-phosphorylated (complex, UniProt Q06410 1-417; Q12092 1-213; Q12421 1-196)
chain 1: MNEADVTKFVNNARKTLTDAQLLCSSANLRIVDIKKKLSSWQLSISKLNFLIVGLRQQGKFLYTILKEGIGTKLIQKQWNQAVLVVLVDEMKYWQYEITSKVQRLDGIVNELSISEKDDTDPSKLGDYISRDNVNLLNDKLKEVPVIERQIENIKLQYENMVRKVNKELIDTKLTDVTQKFQSKFGIDNLMETNVAEQFSRELTDLEKDLAEIMNSLTQHFDKTLLLQDKKIDNDEREELFKVVQGDDKELYNIFKTLHEVIDDVDKTILNLGQFLQAKIKEKTELHSEVSEIINDFNRNLEYLLIFKDISNLIDSFKNSCTQDIQTTKELCEFYDNFEESYGNLVLEAKRRKDVANRMKTILKDCEKQLQNLDAQDQEERQNFIAENGTYLPETIWPGKIDDFSSLYTLNYNVKNP
chain 2: MIMNSTNTVVYIKVKGRRPQGFLDPPKFEWNGTKERQLWTMVSNLNYSQDQIDWQNLSKIFETPEFFLKKRTYKLFAEHLELLQLQLEKKRDLEKYSNDQVNEGMSDLIHKYTPTLQNDNLLNVSASPLTTERQDSEEVETEVTNEALQHLQTSKILNIHKKTSDSENKPNDKLDKDGINKEMECGSSDDDLSSSLSVSKSALEEALMDRLQF
chain 3: MNVTVTVYDKNVKYRLEENIKNNKGPSNDDQPAYNNESKSTDGSDYAMFPTNIKYIFEDNNDELVDSSDAALTAGIDKVGDELENVIIVQLDESGSLEDITLISDQYELLSHRTNSLSLEENQMRTLSSHGDDKSNDEEEELSVDSDRFRVDSDIELDVISQFCDLSPFLRDLSLNDLIKLYVTQNEQLQMLSNSV
In the case of B3, the binding entry in experiment [2] is “binds”.
